From paper PMC13071080
Results are given in words; binding and its absence hold for the method and conditions named. Binding seen in cells or lysates may run through a third protein. Some results given as binding are weak or reduced against the parent protein; the word gives no strength.

Chains of the proteins cited; added tags and fusions are not shown. Residues count along the entry.
UniProt O75094, residues 34-1523: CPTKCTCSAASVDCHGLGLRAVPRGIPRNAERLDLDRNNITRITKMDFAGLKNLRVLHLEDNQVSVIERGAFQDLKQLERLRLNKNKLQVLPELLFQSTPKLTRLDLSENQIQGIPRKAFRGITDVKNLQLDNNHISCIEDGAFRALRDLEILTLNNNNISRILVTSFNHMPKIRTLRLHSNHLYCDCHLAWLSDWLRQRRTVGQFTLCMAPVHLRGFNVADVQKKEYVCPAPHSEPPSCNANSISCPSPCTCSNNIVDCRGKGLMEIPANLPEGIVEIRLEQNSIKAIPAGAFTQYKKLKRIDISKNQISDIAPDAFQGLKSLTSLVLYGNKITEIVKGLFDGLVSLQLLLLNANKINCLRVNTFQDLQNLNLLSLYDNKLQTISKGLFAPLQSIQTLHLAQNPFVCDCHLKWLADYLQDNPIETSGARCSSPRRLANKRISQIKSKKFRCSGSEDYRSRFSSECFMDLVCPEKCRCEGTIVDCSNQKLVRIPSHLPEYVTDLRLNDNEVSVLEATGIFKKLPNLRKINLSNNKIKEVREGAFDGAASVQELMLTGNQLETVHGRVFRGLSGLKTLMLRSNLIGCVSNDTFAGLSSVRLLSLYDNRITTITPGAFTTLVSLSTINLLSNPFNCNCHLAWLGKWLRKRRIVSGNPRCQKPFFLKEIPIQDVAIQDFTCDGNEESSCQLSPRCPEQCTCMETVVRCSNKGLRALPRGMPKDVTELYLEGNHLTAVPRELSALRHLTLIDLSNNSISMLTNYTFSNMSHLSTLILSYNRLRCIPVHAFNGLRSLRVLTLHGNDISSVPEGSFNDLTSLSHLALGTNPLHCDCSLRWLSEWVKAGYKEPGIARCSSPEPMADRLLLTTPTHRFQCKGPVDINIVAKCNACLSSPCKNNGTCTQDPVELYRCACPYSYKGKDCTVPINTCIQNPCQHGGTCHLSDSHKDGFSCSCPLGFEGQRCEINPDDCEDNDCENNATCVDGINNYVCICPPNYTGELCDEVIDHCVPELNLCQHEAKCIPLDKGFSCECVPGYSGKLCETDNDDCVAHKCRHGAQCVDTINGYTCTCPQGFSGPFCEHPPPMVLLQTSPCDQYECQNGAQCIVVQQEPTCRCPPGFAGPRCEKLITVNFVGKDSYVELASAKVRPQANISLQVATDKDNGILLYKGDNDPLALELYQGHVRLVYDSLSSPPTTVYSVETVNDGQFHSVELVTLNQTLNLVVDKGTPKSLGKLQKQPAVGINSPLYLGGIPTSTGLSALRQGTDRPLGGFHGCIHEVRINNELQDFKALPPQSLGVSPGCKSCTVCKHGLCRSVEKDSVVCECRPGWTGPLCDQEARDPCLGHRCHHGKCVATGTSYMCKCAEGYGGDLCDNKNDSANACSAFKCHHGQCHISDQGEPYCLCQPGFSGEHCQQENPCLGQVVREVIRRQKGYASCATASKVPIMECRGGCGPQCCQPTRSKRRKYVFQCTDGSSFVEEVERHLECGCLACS
UniProt Q9HCK4, residues 22-1378: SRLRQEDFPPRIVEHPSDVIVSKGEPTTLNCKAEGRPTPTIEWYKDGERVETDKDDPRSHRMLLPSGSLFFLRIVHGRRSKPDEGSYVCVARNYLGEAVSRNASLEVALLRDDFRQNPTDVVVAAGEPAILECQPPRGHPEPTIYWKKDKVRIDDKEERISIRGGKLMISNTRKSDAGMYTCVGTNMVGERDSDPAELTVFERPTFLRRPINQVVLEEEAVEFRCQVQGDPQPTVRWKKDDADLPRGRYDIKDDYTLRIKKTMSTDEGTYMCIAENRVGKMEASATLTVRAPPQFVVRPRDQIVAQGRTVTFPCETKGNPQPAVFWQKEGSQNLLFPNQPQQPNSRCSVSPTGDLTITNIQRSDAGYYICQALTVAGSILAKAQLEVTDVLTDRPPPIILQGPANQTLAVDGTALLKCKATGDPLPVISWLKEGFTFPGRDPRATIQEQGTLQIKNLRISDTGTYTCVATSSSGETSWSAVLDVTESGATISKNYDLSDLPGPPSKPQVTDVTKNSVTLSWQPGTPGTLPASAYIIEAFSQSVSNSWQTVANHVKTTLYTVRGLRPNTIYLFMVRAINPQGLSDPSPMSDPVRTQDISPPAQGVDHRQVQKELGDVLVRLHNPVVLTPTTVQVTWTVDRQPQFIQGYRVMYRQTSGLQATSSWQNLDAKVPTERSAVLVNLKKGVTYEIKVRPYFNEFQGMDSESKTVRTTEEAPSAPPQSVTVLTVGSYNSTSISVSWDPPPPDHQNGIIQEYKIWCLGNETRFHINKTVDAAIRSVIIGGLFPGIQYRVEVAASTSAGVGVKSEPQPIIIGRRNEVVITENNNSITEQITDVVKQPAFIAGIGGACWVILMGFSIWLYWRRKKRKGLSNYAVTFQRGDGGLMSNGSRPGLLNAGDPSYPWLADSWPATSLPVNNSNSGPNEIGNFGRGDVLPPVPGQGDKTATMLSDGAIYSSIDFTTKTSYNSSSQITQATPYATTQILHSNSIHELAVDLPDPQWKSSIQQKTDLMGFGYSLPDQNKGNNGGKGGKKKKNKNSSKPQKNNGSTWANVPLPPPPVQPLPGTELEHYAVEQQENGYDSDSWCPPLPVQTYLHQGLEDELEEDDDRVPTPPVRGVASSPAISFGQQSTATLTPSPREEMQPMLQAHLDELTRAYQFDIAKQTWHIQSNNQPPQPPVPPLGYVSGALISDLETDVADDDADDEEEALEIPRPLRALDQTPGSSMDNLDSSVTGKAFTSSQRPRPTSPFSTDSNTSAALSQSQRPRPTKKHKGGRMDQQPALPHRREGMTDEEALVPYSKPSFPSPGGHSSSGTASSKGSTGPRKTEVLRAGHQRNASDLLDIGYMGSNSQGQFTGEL

Target: SLIT3 (human (endogenous in SCAP)) (UniProt O75094)
Assay: co-IP; immunoprecipitation of SLIT3 from SCAP, ROBO2 and ROBO3 detected in the precipitate; cells with or without rhSLIT3 treatment (more ROBO2 and ROBO3 co-precipitated after rhSLIT3)

Molecule | binding
ROBO2 (from UniProt Q9HCK4 22-1378) (receptor) | binds
ROBO3 (receptor, UniProt Q96MS0 21-1386) GDISNSSELLLGFNSSLAALNHTLLPPGDPSLNGSRVGPEDAMPRIVEQPPDLLVSRGEPATLPCRAEGRPRPNIEWYKNGARVATVREDPRAHRLLLPSGALFFPRIVHGRRARPDEGVYTCVARNYLGAAASRNASLEVAVLRDDFRQSPGNVVVAVGEPAVLECVPPRGHPEPSVSWRKDGARLKEEEGRITIRGGKLMMSHTLKSDAGMYVCVASNMAGERESAAAEVMVLERPSFLRRPVNQVVLADAPVTFLCEVKGDPPPRLRWRKEDGELPTGRYEIRSDHSLWIGHVSAEDEGTYTCVAENSVGRAEASGSLSVHVPPQLVTQPQDQMAAPGESVAFQCETKGNPPPAIFWQKEGSQVLLFPSQSLQPTGRFSVSPRGQLNITAVQRGDAGYYVCQAVSVAGSILAKALLEIKGASLDGLPPVILQGPANQTLVLGSSVWLPCRVTGNPQPSVRWKKDGQWLQGDDLQFKTMANGTLYIANVQEMDMGFYSCVAKSSTGEATWSGWLKMREDWGVSPDPPTEPSSPPGAPSQPVVTEITKNSITLTWKPNPQTGAAVTSYVIEAFSPAAGNTWRTVADGVQLETHTVSGLQPNTIYLFLVRAVGAWGLSEPSPVSEPVRTQDSSPSRPVEDPWRGQQGLAEVAVRLQEPIVLGPRTLQVSWTVDGPVQLVQGFRVSWRVAGPEGGSWTMLDLQSPSQQSTVLRGLPPGTQIQIKVQAQGQEGLGAESLSVTRSIPEEAPSGPPQGVAVALGGDGNSSITVSWEPPLPSQQNGVITEYQIWCLGNESRFHLNRSAAGWARSAMLRGLVPGLLYRTLVAAATSAGVGVPSAPVLVQLPSPPDLEPGLEVGAGLAVRLARVLREPAFLAGSGAACGALLLGLCAALYWRRKQRKELSHYTASFAYTPAVSFPHSEGLSGASSRPPMGLGPAPYSWLADSWPHPSRSPSAQEPRGSCCPSNPDPDDRYYNEAGISLYLAQTARGTAAPGEGPVYSTIDPAGEELQTFHGGFPQHPSGDLGPWSQYAPPEWSQGDSGAKGGKVKLLGKPVQMPSLNWPEALPPPPPSCELSCLEGPEEELEGSSEPEEWCPPMPERSHLTEPSSSGGCLVTPSRRETPSPTPSYGQQSTATLTPSPPDPPQPPTDMPHLHQMPRRVPLGPSSPLSVSQPMLGIREARPAGLGAGPAASPHLSPSPAPSTASSAPGRTWQGNGEMTPPLQGPRARFRKKPKALPYRRENSPGDLPPPPLPPPEEEASWALELRAAGSMSSLERERSGERKAVQAVPLAAQRVLHPDEEAWLPYSRPSFLSRGQGTSTCSTAGSNSSRGSSSSRGSRGPGRSRSRSQSRSQSQRPGQKRREEPR | binds
